Results reported in the supplement of paper PMC8256030.
“And” between values parts separate entries of the source, which are not always exact repeats. Equal values may be shown once. Where a name gives a salt, the structure may show the parent alone. ± gives the standard deviation of the averaged measurements. This is one part of the list. Repeats in this data set agree poorly, so a single value says little.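 HEK293T cells were given each compound shortly before transfection with a reporter in which red mCherry is followed by the SARS-CoV-2 frameshift element and then GFP in the −1 frame, so GFP appears only after frameshifting.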

The molecules below were run on SARS-CoV-2 -1 PRF reporter mCherry-FSE-GFP(-1) (assay: mCherry (red) intensity as percent of control; higher = higher upstream reporter expression). Settings: 10 µM; 24 h; HEK293T.
`O=C(NC[C@H]1CN(c2ccc(N3CCOCC3=O)cc2)C(=O)O1)c1ccc(Cl)s1` [rivaroxaban] was tested, and the mCherry was 94.3%. Molecule `C[C@H]1C[C@H]2[C@@H]3CCC4=CC(=O)C=C[C@]4(C)[C@H]3C(=O)C[C@]2(C)[C@@]1(O)C(=O)CO` [meprednisone] has a mCherry of 96.2%. For `COc1ccccc1OCCOCCOCCN1CCCCC1` [guaiapate], the mCherry was 94.7%. Molecule `CC(C(=O)O)c1ccc(CC2CCCC2=O)cc1` (stereo not given) [loxoprofen] has a mCherry of 96.9%. With `O=C(NCC1CCCCN1)c1cc(OCC(F)(F)F)ccc1OCC(F)(F)F` (stereo not given) [flecainide] the mCherry was 94.9%. Molecule `CC[C@@]12C=C(C(=O)OC)n3c4c(c5ccccc53)CCN(CCC1)[C@H]42` [apovincamine] has a mCherry of 101 ± 10%. Molecule `CC(=O)Nc1ccc(OC(=O)c2ccccc2O)cc1` [acetaminosalol] has a mCherry of 101%. Molecule `O=C1C(CC[S+]([O-])c2ccccc2)C(=O)N(c2ccccc2)N1c1ccccc1` (stereo not given) [sulfinpyrazone] has a mCherry of 94.8%. `CCC[C@@H]1C[C@@H](C(=O)N[C@@H]([C@H]2O[C@H](SC)[C@H](O)[C@@H](O)[C@H]2O)[C@H](C)Cl)N(C)C1` [Clindamycin] was tested, and the mCherry was 123%. `C[C@H](O)[C@H](O)[C@H]1CNc2nc(N)[nH]c(=O)c2N1` [Tetrahydrobiopterin] showed a mCherry of 112%. `CCCCCCCCCCCCCCCC(=O)OC/C=C(C)/C=C/C=C(C)/C=C/C1=C(C)CCCC1(C)C` showed a mCherry of 105%. With `NC(=O)NO` [hydroxycarbamide] the mCherry was 99.1%. Molecule `CC[C@H]1OC(=O)[C@H](C)[C@@H](O[C@H]2C[C@@](C)(OC)[C@@H](O)[C@H](C)O2)[C@H](C)[C@@H](O[C@@H]2O[C@H](C)C[C@H](N(C)C)[C@H]2O)[C@](C)(O)C[C@](C)(F)C(=O)[C@H](C)[C@@H](O)[C@]1(C)O` [flurithromycin] has a mCherry of 120%. Molecule `O=C1[C@@H]2[C@H]3CC[C@H](C3)[C@@H]2C(=O)N1C[C@@H]1CCCC[C@H]1CN1CCN(c2nsc3ccccc23)CC1` [lurasidone] has a mCherry of 90.6%. `c1ccc(C(O[C@@H]2CCCN(CCc3ccc4c(c3)OCO4)C2)c2ccccc2)cc1` [zamifenacin] was tested, and the mCherry was 102%. `Cc1cc(C(=O)NNCc2ccccc2)no1` [isocarboxazid] gave a mCherry of 102%. `CC1(C)O[C@@H]2C[C@H]3[C@@H]4C[C@H](F)C5=CC(=O)C=C[C@]5(C)[C@H]4[C@@H](O)C[C@]3(C)[C@]2(C(=O)CO)O1` was tested, and the mCherry was 89.8%. `C[C@](N)(Cc1ccc(O)c(O)c1)C(=O)O` [Methyldopa] showed a mCherry of 77.9%. For `COC(=O)N/N=C/c1c[n+]([O-])c2ccccc2[n+]1[O-]`, the mCherry was 112%. With `CCCCCCCN(CC)CCCC(O)c1ccc(NS(C)(=O)=O)cc1` (stereo not given) [ibutilide] the mCherry was 87.8%. `CC(=O)O[C@]1(C(C)=O)CC[C@H]2[C@@H]3C[C@H](C)C4=CC(=O)CC[C@]4(C)[C@H]3CC[C@@]21C` gave a mCherry of 117%. Work on `COc1cc2c(cc1OC)-c1c/c(=N\c3c(C)cc(C)cc3C)n(C)c(=O)n1CC2` [Trequinsin·HCl] yielded a mCherry of 50.4%. `C=CCN1CCCC1CNC(=O)c1cc2nn[nH]c2cc1OC` (stereo not given) [alizapride] showed a mCherry of 92.4%. `C[C@@H]1C[C@H]2[C@@H]3C[C@H](F)C4=CC(=O)C=C[C@]4(C)[C@H]3[C@@H](O)C[C@]2(C)[C@H]1C(=O)CO` [fluocortolone] was tested, and the mCherry was 65.3%. For `CNCCc1ccccn1` [betahistine], the mCherry was 113%. `COc1ccc(-c2nc(C(F)(F)F)sc2-c2ccc(OC)cc2)cc1` [itazigrel] was tested, and the mCherry was 84.8%. With `CCOc1c(N2CCOCC2)cnn(C)c1=O` [emorfazone] the mCherry was 90.1%. `NC(=O)c1ccc([N+](=O)[O-])cc1Cl` [aklomide] showed a mCherry of 121%. With `O=C1CC[C@@H](C(=O)Oc2ccc(O)cc2)N1` [pidobenzone] the mCherry was 77.2%. Molecule `Cc1ccsc1/C=C/C1=NCCCN1C` has a mCherry of 141%. With `C[C@@H]1C[C@H]2[C@@H]3C[C@H](F)C4=CC(=O)C=C[C@]4(C)[C@@]3(F)[C@@H](O)C[C@]2(C)[C@@]1(O)C(=O)COC(=O)C(C)(C)C` the mCherry was 107%. `CCCCCC1C(=O)N2C=C(c3ccccc3)c3ccccc3N2C1=O` (stereo not given) [cinnopentazone] was tested, and the mCherry was 82.1%. Work on `CCC[C@H](N[C@@H](C)C(=O)N1[C@H](C(=O)O)C[C@@H]2CCCC[C@@H]21)C(=O)OCC` yielded a mCherry of 120%. `COc1cc(C)c2c(Oc3cccc(C(F)(F)F)c3)c(OC)cc(NC(C)CCCN)c2n1` (stereo not given) [tafenoquine] showed a mCherry of 97.4%. `CC(C)=CCC/C(C)=C/CC/C(C)=C/CSc1ccccc1C(=O)O` [salirasib] was tested, and the mCherry was 103%. In the case of `CC1(C)S[C@@H]2[C@H](NC(=O)[C@H](N)c3ccc(O)cc3)C(=O)N2[C@H]1C(=O)O` [Amoxicillin], the mCherry is reported as 58.4%. Molecule `CN(C)CCN(Cc1ccc(Cl)cc1)c1ccccn1` has a mCherry of 101%. For `CC(=O)OCC(=O)[C@@]1(O)CC[C@H]2[C@@H]3CCC4=CC(=O)CC[C@]4(C)[C@@]3(F)[C@@H](O)C[C@@]21C`, the mCherry was 112%. For `CN(C)CC(c1ccc(O)cc1)C1(O)CCCCC1` (stereo not given), the mCherry was 98%. `C=C1/C(=C\C=C2/CCC[C@]3(C)[C@@H]([C@H](C)CCCC(C)(C)O)CC[C@@H]23)C[C@@H](O)C[C@@H]1O` [calcitriol] was tested, and the mCherry was 92.6% and 101%.
